Results are given in words; binding and its absence hold for the method and conditions named. Some binding calls cover weakened binding; strength is not graded here.
Experiments:
death receptor 5 (DR5) [1] = biological target: death receptor 5 (DR5) (UniProt O14763); assay: SPR (Biacore 2000), DR5 immobilised on CM5 chip
death receptor 5 (DR5) [2] = biological target: death receptor 5 (DR5) (UniProt O14763); assay: MACS and FACS of yeast-displayed scFv with 1 µM biotin-labelled DR5
death receptor 5 (DR5) [3] = biological target: death receptor 5 (DR5) (UniProt O14763); assay: ELISA, HW6 pre-bound to DR5-fixed plate, TRAIL titrated as competitor
death receptor 5 (DR5) [4] = biological target: death receptor 5 (DR5) (UniProt O14763); assay: competitive ELISA on coated DR5, with or without 20 µg/ml TRAIL as competitor
death receptor 5 (DR5) [5] = biological target: death receptor 5 (DR5) (UniProt O14763); assay: SPR (Biacore 2000): DR5 immobilised on a CM5 chip, HW6 injected at 25 to 400 nM in PBS pH 7.4, 25 °C
death receptor 5 (DR5) [6] = biological target: death receptor 5 (DR5) (UniProt O14763); assay: ELISA on coated DR5, no TRAIL; detection with anti-Flag M2 or anti-E-tag, then AP anti-mouse IgG and p-NPP; A405 plotted as bound fraction
death receptor 5 (DR5) [7] = biological target: death receptor 5 (DR5) (UniProt O14763); assay: competitive ELISA: HW6 pre-bound to the DR5-coated plate (16 µg/µl as written in paragraph 107), then TRAIL titrated as competitor; bound scFv detected
death receptor 5 (DR5) [8] = biological target: death receptor 5 (DR5) (UniProt O14763); assay: competitive ELISA on coated DR5 with 20 µg/ml TRAIL present; detection with anti-Flag M2 or anti-E-tag, then AP anti-mouse IgG and p-NPP; A405 plotted as bound fraction

Chains of the proteins cited; added tags and fusions are not shown. Residues count along the entry.
UniProt O14763, residues 52-182: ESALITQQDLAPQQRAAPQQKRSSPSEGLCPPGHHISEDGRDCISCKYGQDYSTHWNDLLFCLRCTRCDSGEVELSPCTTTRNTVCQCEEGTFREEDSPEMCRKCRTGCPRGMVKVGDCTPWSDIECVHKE

Measured: binding

B1: HW6 anti-DR5 scFv antibody (scFv)
scFv: QVQLQQSGPGRVQPSQTLSLTCAISGDSVSNNNAAWYWIRQSPSRGLEWLGRTYYRSKWYNDYAVSVKSRITISPDTSKNQFSLQLNSVTPEDTAVYYCARRGDGNSYFDYWGQGTLVTVSSGILRWGRFGWRGLGRGWLEIVLTQSPGTLSLSPGERATLSCRASQSVSSGYVSWYRQKPGQAPRLLIYGASTRATGIPDRFSGSGSGTDFTLTISRLEPEDFAVYYCHQYGSSPNTYGQGTKVGIK
notes: Human scFv expressed in E. coli periplasm, purified, monomeric; not shown: C-terminal Flag tag from vector pKJ1; C-terminal 6xHis tag from vector pKJ1
binds: all assays above

— patent US20090317396A1 (AJOU UNIVERSITY INDUSTRY ACADEMIC COOPERATION FOUNDATION, published 2009)
